Drawing on publication PMC4764768, this text covers binding for one substance.

By UniProt entry, the sequences of proteins in these tests, tags left out.
UniProt Q5K651: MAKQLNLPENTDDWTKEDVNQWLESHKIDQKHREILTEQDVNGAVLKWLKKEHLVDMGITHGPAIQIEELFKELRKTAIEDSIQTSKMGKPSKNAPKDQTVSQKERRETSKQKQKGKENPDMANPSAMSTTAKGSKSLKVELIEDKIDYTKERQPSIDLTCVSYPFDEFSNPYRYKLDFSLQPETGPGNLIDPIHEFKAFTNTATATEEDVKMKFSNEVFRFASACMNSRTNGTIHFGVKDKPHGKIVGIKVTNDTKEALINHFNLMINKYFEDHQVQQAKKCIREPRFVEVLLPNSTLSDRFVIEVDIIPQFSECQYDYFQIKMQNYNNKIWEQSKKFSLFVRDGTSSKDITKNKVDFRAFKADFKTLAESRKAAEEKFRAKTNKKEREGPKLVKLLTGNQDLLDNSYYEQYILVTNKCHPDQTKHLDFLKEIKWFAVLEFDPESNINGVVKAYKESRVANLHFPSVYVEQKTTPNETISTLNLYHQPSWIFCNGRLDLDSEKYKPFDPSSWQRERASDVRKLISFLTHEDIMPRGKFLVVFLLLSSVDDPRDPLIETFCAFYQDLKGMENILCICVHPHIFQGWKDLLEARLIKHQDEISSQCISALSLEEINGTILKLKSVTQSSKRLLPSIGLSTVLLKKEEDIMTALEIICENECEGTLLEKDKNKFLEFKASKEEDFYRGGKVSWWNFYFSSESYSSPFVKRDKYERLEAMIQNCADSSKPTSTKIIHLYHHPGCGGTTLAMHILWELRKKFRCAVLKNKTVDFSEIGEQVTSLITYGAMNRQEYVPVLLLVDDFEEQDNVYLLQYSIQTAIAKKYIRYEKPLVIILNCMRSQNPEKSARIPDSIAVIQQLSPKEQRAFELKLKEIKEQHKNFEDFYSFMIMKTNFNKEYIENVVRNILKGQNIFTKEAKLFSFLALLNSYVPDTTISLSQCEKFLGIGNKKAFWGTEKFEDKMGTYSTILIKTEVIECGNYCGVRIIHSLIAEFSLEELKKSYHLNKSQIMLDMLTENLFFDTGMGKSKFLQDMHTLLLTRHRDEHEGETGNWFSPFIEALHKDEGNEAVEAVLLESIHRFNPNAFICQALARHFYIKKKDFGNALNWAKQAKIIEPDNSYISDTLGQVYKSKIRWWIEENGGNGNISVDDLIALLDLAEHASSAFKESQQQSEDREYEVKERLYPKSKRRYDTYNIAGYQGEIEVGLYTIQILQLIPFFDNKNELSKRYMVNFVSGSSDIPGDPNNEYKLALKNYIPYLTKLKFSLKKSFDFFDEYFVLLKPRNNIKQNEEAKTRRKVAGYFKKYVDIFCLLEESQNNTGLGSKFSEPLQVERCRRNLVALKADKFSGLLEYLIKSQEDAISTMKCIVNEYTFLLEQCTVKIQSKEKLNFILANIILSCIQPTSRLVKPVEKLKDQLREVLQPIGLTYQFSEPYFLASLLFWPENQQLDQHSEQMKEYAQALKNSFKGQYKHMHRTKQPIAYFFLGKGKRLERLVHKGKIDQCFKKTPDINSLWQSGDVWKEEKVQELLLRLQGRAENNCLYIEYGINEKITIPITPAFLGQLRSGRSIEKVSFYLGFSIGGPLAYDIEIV

These are yes or no findings as the source states them, for the method shown. Binding seen in cells or lysates may run through a third protein. A yes stands for co-enrichment or nearness to the bait. Other partners may have been found. Tags and fused reporters may be left off the sequences shown.

In the assay the target is T1, GST-11E6 (HPV-11 E6 protein fused with GST at the N-terminus) (human papillomavirus type 11) (UniProt P04019).
T1 sequence: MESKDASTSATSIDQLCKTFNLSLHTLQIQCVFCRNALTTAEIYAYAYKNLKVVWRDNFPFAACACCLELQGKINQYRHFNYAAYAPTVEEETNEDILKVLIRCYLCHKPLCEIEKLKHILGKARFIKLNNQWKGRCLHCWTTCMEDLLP
The assay is described as follows: affinity purification with mass spectrometry; only the target purified.

Turning to “sterile α motif domain containing 9 (SAMD9), endogenous in N/TERT-1 keratinocytes (from UniProt Q5K651 1-1589)”, the binding entry is “binds”.
